± gives the standard deviation. Some of the results follow. Many entries were measured with a wide error.
test system: EfPiwi piRISC loaded with L1MC piRNA (26 nt); assay: pre-steady-state target cleavage rate (min^-1); guide: L1MC piRNA 5'p-UAACUAAAUACUAUGCAAGCUGUAGG; MIWI and MILI are mouse PIWI proteins and EfPiwi is from a freshwater sponge; tags in brackets are library labels; higher = faster piRNA-guided slicing of the target; conditions: auxiliary factor: 500 nM Ephydatia muelleri Gtsf1
Method in brief: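 The pre-steady-state cleavage rate was obtained by Cleave-'n-Seq with a burst-and-steady-state fit. A transcribed, DNA-blocked target RNA library (0.1 nM) was mixed with 1 nM active affinity-purified piRISC carrying one synthetic guide, with or without 500 nM GTSF1 partner protein, in HEPES–potassium acetate buffer at 33 °C for 0–8 or 0–960 min. Uncleaved targets were sequenced and normalised to depth and to weakly complementary targets, with three trials pooled and k3 capped at 0.0001 min^-1.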

Sequence	pre-steady-state target cleavage rate
UCCUCCUACUGCUUGCAUUGUAUUUAGUUA	0.0605 ± 0.016
UCCUGGAUCAGGUUGCAUAGAAUUUAGUUA	0.00305 ± 0.0023
UCCUCCUACUGCUUGCAUAGAAUUUAGUUA	0.00761 ± 0.0021
UCCUGGAUCAGCAAGCAUAGUAUUUAGUUA	0.0107 ± 0.0038
UCCUGCUUCACCUUGCAUAGUAUUUAGUUA	0.0076 ± 0.0034
UCCUGGAUCACCUUGCUUAGUAUUUAGUUA	0.00278 ± 0.0034
UCCUCCUACUAGCUUGCAUAGUAUUUAGUUA	0.127 ± 0.035
UCCUGCUACAGCUUGCAUAGUAUUUAGUUC [g2:g25:cont:t1C]	0.0645 ± 0.016
UCCUGGAACAGCUUGCAUAGUAUUCAGUUA	0.00333 ± 0.0018
UCCUGGAUCAGCUUGAUAGUAUUUAGUUA	0.00188 ± 0.0045
UCCUGGUAGUCCUUGCAUAGUAUUUAGUUA	0.00556 ± 0.0026
UCCUGGUAGAGCUUGCAAAGUAUUUAGUUA	0.0322 ± 0.0099
UCCUGGAACAGCUUGGUUAGUAUUUAGUAA	0.000953 ± 0.0057
UCCUGGAUCACCUUGCAUAGUAAUUAGUUA	0.123 ± 0.049
UCCUCCUACAGCUUGCAUAGUAUUAAGUUA	0.00589 ± 0.0029
UCCUGGAUGUCGAACGAUACUAUUUUGUUA	< 0.0001
UCCUGGAUGUGCUUGGAUAGUAUUUAGUUA	0.0042 ± 0.0044
UCCUGGAUGUCGAAGCAUUGUAUUUAGUAA	0.000589 ± 0.011
UCCUGGAUCAGUUUGCAUAGUAUUUAGUUA	0.128 ± 0.021

Sequence	pre-steady-state target cleavage rate
UCCUCCUGACAGCUUGCAUAGUAUUUAGUUA	0.0255 ± 0.008
UCCUCCUACAGCUUGCAUAGUAUUUAUGUUA	0.00546 ± 0.0027
UCCUCCUACAGCUUGCAUAGUUAAUAGUUA	0.00703 ± 0.0035
UCCUGGUACACCUUGCAUUGUAUUUAGUUA	0.00103 ± 0.0076
UCCUGGAUGUCGAAGCAUAUGUAUUUAGUUA	0.000731 ± 0.0091
UCCUGCUACAGCUUGCAUAGUAUUUAGUCA	0.00386 ± 0.0017
UCCUCCUACAGCUUGCAUAGUAGUUAGUUA	0.00786 ± 0.0026
UCCUGGAUGUCGAACCAUAGUUAUUUAGUUA	0.000277 ± 0.017
UCCUGGAUGUCGAACGUUGAGUAUUUAGUUA	0.000285 ± 0.019
UCCUGGAUGUCCUGUGCAUAGUAUUUAGUUA	0.00223 ± 0.0032
UCCUGGAUGAGCUUCAUAGUAUUUAGUUA	0.00394 ± 0.0033
UCCUGGAUCAGCUUGCUUAGUAUUUACUUA	0.00128 ± 0.0039
UCCUGGAUGUCGUUGCAUAGUAUUCUAGUUA	0.000942 ± 0.0096
UCCUCCUACAGCUGCAUAGUAUUUAGUUA	0.0884 ± 0.026
UCCUGGAUCAGCUUGCAUAGUAUUUAGAAA	0.00346 ± 0.0016
UCCUGGAACUCCUUGCAUAGUAUUUAGUUA	0.0352 ± 0.009
UCCUGGAUGUCGAAGCAUAGUAUUAUCAAA [g7:g16:cont:t1A]	0.000156 ± 0.021
UCCUGGAACAGCUCGCAUAGUAUUUAGUUA	0.0171 ± 0.0048

Fetched one by one from above, 2 records:
Sequence	pre-steady-state target cleavage rate
UCCUGGAUGUCGAACGUUGAGUAUUUAGUUA	0.000285 ± 0.019
UCCUGCUACAGCUUGCAUAGUAUUUAGUUC [g2:g25:cont:t1C]	0.0645 ± 0.016

same assay, conditions: auxiliary factor: none (no Gtsf1)

Sequence	pre-steady-state target cleavage rate
UCCUGGAUGUCGAUCCAUAGUAAUUAGUUA	< 0.0001
UCCUGGAUGUGCUUGCAUAGUAUUUAGUUG [g2:g20:cont:t1G]	0.00187 ± 0.0083
UCCUGGAUGUCGAACGUAUCUAUUUAGUGUA	0.000552 ± 0.017

Source: the supplement of paper PMC10338343
